Measurements from the supplement of paper PMC10727501.
Some of the results follow. Single values are uncertain here, since repeats match poorly.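 Researchers measured free-swimming zebrafish larvae's O-bend response probability to dark flashes (naive: first five; training: remaining flashes of four 60-flash blocks; test: later 60-flash block) and OMR turning toward alternating leftward/rightward LED motion. Six treated larvae were compared to sixty 0.1% DMSO controls, with |SSMD|≥2 marking a hit.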

Each compound was assayed on Danio rerio larvae (5 dpf, TLF) (assay: Prob-Naive (SSMD vs DMSO vehicle); higher = higher than vehicle (e.g. higher dark-flash O-bend response probability, or better optomotor performance)). Conditions: 10 µM; pre-incubation: 30-90 min.
Work on `Nc1ncnc2c1c(-c1cccc(OCc3ccccc3)c1)cn2[C@H]1C[C@H](CN2CCCC2)C1` yielded a Prob-Naive of 0.255.
Compound `OC[C@H]1O[C@@H](OCCc2ccc(O)cc2)[C@H](O)[C@@H](O)[C@@H]1O` [Salidroside] has a Prob-Naive of -0.0925.
With `Cc1ccc(NC(=O)c2cccc(N(C)C)c2)cc1NC(=O)c1ccc(O)cc1` the Prob-Naive was 0.102.
In the case of `CN1C(CCl)Nc2cc(Cl)c(S(N)(=O)=O)cc2S1(=O)=O` (stereo not drawn) [Methyclothiazide], the Prob-Naive is reported as 0.215.

Each compound was assayed on Danio rerio larvae (5 dpf, TLF) (assay: Prob-Train (SSMD vs DMSO vehicle); higher = higher than vehicle (e.g. higher dark-flash O-bend response probability, or better optomotor performance)). Conditions: 10 µM; pre-incubation: 30-90 min.
`COc1ccc([C@@H]2CC(=O)c3c(O)cc(O[C@@H]4O[C@H](CO[C@@H]5O[C@@H](C)[C@H](O)[C@H](O)[C@H]5O)[C@@H](O)[C@H](O)[C@H]4O)cc3O2)cc1O` [Hesperidin] gave a Prob-Train of -0.046.
In the case of `O=C(/C=C/c1cccnc1)NCCCCC1CCN(C(=O)c2ccccc2)CC1`, the Prob-Train is reported as -0.00266.
`CCOC(=O)[C@H](CCc1ccccc1)N[C@H]1CS[C@H](c2cccs2)CN(CC(=O)O)C1=O.Cl` [Temocapril HCl] gave a Prob-Train of -0.139.
In the case of `COC(=O)C1=C(C)NC(C)=C(C(=O)OC)C1c1ccccc1[N+](=O)[O-]` [Nifedipine], the Prob-Train is reported as -0.52.
For `CCNC(=O)CCC/C=C\C[C@@H]1[C@@H](/C=C/C(O)CCc2ccccc2)[C@H](O)C[C@@H]1O` (stereo partly drawn) [Bimatoprost], the Prob-Train was -0.452.
Compound `Oc1ccc(-c2nc(-c3ccc(F)cc3)c(-c3ccncc3)[nH]2)cc1` has a Prob-Train of -0.0434.
`COc1ccc(-c2cc(=O)c3c(O)cc(O)cc3o2)cc1O` [Diosmetin] gave a Prob-Train of -0.413.
`CC1(C)S[C@H]2[C@H](NC(=O)[C@H](N)c3ccc(O)cc3)C(=O)N2[C@H]1C(=O)O` [Amoxicillin] showed a Prob-Train of -0.0715.
`CC[C@]1(O)C[C@@H]2CN(CCc3c([nH]c4ccccc34)[C@@](C(=O)OC)(c3cc4c(cc3OC)N(C=O)[C@H]3[C@@](O)(C(=O)OC)[C@H](OC(C)=O)[C@]5(CC)C=CCN6CC[C@@]43[C@@H]65)C2)C1.O=S(=O)(O)O` [Vincristine] gave a Prob-Train of 0.081.
In the case of `CC(C)[C@H](N)C(=O)OCCOCn1cnc2c(=O)[nH]c(N)nc21.Cl` [Valaciclovir HCl], the Prob-Train is reported as -0.181.
`Oc1nc(-c2ccc(C(F)(F)F)cc2)nc2c1CSCC2` was tested, and the Prob-Train was -0.988.
Compound `Cc1nnc(C(C)C)n1C1CC2CCC(C1)N2CC[C@H](NC(=O)C1CCC(F)(F)CC1)c1ccccc1` (stereo partly drawn) [Maraviroc] has a Prob-Train of -0.264.
`N#Cc1ccc(-c2csc(NN=C3CCCC3)n2)cc1` [Remodelin] was tested, and the Prob-Train was -2.64.
`C[C@H](Cn1cnc2c(N)ncnc21)OCP(=O)(O)O` [Tenofovir] was tested, and the Prob-Train was 0.363.
`CCC[C@@H]1C[C@@H](C(=O)N[C@H]([C@H]2O[C@@H](SC)[C@H](OP(=O)(O)O)[C@@H](O)[C@H]2O)[C@H](C)Cl)N(C)C1` [Clindamycin phosphate] was tested, and the Prob-Train was -0.301.
`COc1cc(O)cc([C@@H]2CC(=O)c3c(O)cc(O[C@@H]4O[C@H](CO)[C@@H](O)[C@H](O)[C@@H]4O[C@@H]4O[C@@H](C)[C@H](O)[C@@H](O)[C@@H]4O)cc3O2)c1` [Neohesperidin] showed a Prob-Train of -0.291.
Work on `O=C(NNc1nc2cc(F)ccc2n2cccc12)c1cnccn1` yielded a Prob-Train of -0.476.
For `CCOC(=O)c1ccc(N)cc1` [Benzocaine], the Prob-Train was -0.352.
`C[C@@H]1[C@H](O)[C@@H](C)/C=C/C=C/C=C/C=C/C=C/C=C/C=C/[C@H](O[C@@H]2O[C@H](C)[C@@H](O)[C@H](N)[C@@H]2O)C[C@@H]2O[C@@](O)(C[C@@H](O)C[C@@H](O)[C@H](O)CC[C@@H](O)C[C@@H](O)CC(=O)O[C@H]1C)C[C@H](O)[C@@H]2C(=O)O` [Amphotericin B] gave a Prob-Train of 0.133.
`Cl.Cl.Fc1cc(-c2cccc3ncc(-c4cnn(C5CCNCC5)c4)nc23)cc(F)c1CN1CCOCC1` was tested, and the Prob-Train was -0.0502.
With `C=C(NC(=O)C(=C)NC(=O)c1csc(C2=N[C@@H]3c4csc(n4)[C@H]4NC(=O)c5csc(n5)[C@H]([C@](C)(O)[C@@H](C)O)NC(=O)[C@H]5CSC(=N5)/C(=C/C)NC(=O)[C@H]([C@@H](C)O)NC(=O)c5csc(n5)[C@]3(CC2)NC(=O)[C@H](C)NC(=O)C(=C)NC(=O)[C@H](C)NC(=O)[C@H]([C@@H](C)CC)N[C@@H]2C=Cc3c([C@H](C)O)cc(nc3[C@H]2O)C(=O)O[C@@H]4C)n1)C(N)=O` [Thiostrepton] the Prob-Train was -0.113.
In the case of `COc1ccc(-c2oc3c(CC=C(C)C)c(OC4O[C@H](CO)[C@@H](O)[C@H](O)[C@H]4O)cc(O)c3c(=O)c2OC2O[C@@H](C)[C@H](O)[C@@H](O)[C@@H]2O)cc1` (stereo partly drawn) [Icariin], the Prob-Train is reported as 0.33.
In the case of `CC(C)NCC(O)COc1cccc2[nH]ccc12` (stereo not drawn) [Pindolol], the Prob-Train is reported as 0.21.
With `NC(CO)(CO)CO` [Trometamol] the Prob-Train was -0.143.
Compound `Cc1cc(-c2ncc(CC(=O)Nc3ccc(-c4cnccn4)cn3)cc2C)ccn1` has a Prob-Train of -0.586.
Work on `Cc1c[nH]c(-c2cnc(NCCNc3ccc(C#N)cn3)nc2-c2ccc(Cl)cc2Cl)n1.Cl` yielded a Prob-Train of -0.0996.
For `Cc1oncc1C(=O)Nc1ccc(C(F)(F)F)cc1` [Leflunomide], the Prob-Train was -0.395.
Compound `C[C@H]1CCN(C(=O)CC#N)C[C@@H]1N(C)c1ncnc2[nH]ccc12` has a Prob-Train of 0.117.
`COc1cc2c(Nc3ccc(NC(=O)c4ccccc4)cc3)ncnc2cc1OCCCN1CCOCC1` gave a Prob-Train of -0.586.
For `COc1ccc(C2(C#N)CCC(C(=O)O)CC2)cc1OC1CCCC1` (stereo not drawn) [Cilomilast], the Prob-Train was -2.26.
Work on `CN(C)CCN1C(=O)c2cccc3cc(N)cc(c23)C1=O` [Amonafide] yielded a Prob-Train of -0.517.
For `C/C=C1/[C@H]2C=C(C)C[C@]1(N)c1ccc(=O)[nH]c1C2` [(-)-Huperzine A (HupA)], the Prob-Train was 0.0806.
`CCCC(=O)O[C@@]1(C(=O)COC(C)=O)CC[C@H]2[C@@H]3C[C@H](F)C4=CC(=O)C=C[C@]4(C)[C@]3(F)[C@H](O)C[C@@]21C` [Difluprednate] gave a Prob-Train of -0.128.
`COc1cccc(-c2cc(=O)c3ccccc3o2)c1N` gave a Prob-Train of -0.837.
For `COc1cc([C@H]2c3cc4c(cc3[C@@H](O[C@@H]3O[C@@H]5CO[C@@H](c6cccs6)O[C@H]5[C@H](O)[C@H]3O)[C@H]3COC(=O)[C@H]23)OCO4)cc(OC)c1O` [Teniposide], the Prob-Train was -0.26.
`Nc1ncnc2c1c(-c1cccc(OCc3ccccc3)c1)cn2[C@H]1C[C@H](CN2CCCC2)C1` showed a Prob-Train of -0.219.
In the case of `OC[C@H]1O[C@@H](OCCc2ccc(O)cc2)[C@H](O)[C@@H](O)[C@@H]1O` [Salidroside], the Prob-Train is reported as -0.0522.
With `Cc1ccc(NC(=O)c2cccc(N(C)C)c2)cc1NC(=O)c1ccc(O)cc1` the Prob-Train was -0.187.
Work on `CN1C(CCl)Nc2cc(Cl)c(S(N)(=O)=O)cc2S1(=O)=O` (stereo not drawn) [Methyclothiazide] yielded a Prob-Train of 0.349.
